Data published in patent US11384113B2, “Cobalamin derivatives and their use for the treatment of diseases caused by lack of vitamin B12 supply” (Albert-Ludwigs-Universitaet Freiburg, priority 2017, dated 2022).
Some results were stated once for a whole list of compounds, not compound by compound.

Target: T1, human recombinant CblC wild type (Homo sapiens, UniProt Q9Y4U1)
T1 sequence (Q9Y4U1 1-282): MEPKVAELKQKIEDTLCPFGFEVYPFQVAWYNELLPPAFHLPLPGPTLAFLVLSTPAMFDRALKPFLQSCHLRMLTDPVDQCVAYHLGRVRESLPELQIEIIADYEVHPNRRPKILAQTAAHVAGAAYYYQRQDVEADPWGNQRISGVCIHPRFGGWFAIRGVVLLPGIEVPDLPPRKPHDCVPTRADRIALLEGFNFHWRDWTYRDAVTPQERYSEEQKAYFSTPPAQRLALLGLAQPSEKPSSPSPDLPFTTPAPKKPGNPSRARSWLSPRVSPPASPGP
Format: biochemical
Settings: CblC-bound cobalamin mixed with 5 mM GSH
Protocol: The ability of the newly synthesized Cbl derivatives to serve as substrates for CblC was examined (FIG. 12). CblC activity was measured by UV-visible spectroscopy according to published procedures. Analysis of reaction products was performed by mass spectrometry. We measured dealkylation and de-thiolation of Co—C and Co—S bonded Cbl derivatives, respectively, by wild type and mutant CblC proteins to determine whether these reactions could be supported in patients harboring an abnormal isoform of CblC with low or no enzymatic activity.
The enzymatic activity of CblC in the presence of CyaCbl and MPGCbl as substrates was evaluated under the same experimental conditions utilized to examine dealkylation of MeCbl and AdoCbl. […] The reaction was complete in less than 10 seconds, which is the time it takes to record the first spectrum after mixing of CblC-bound to CyaCbl or MPGCbl with 5 mM GSH (FIG. 12).
First, the ability of novel cobalamins described herein was tested to act as substrate for wild type CblC and to restore the lost activity of pathogenic variants, such as mutant Arg161Gly, that leads to early-onset form of the cblC disease.

For `CC1=C2N=C(C=C3N=C(C(C)=C4[N-]C(C(CC(N)=O)C4(C)CCC(=O)NCC(C)OP(=O)([O-])OC4C(CO)OC(n5cnc6cc(C)c(C)cc65)C4O)C4(C)N=C1C(CCC(N)=O)C4(C)CC(N)=O)C(CCC(N)=O)C3(C)C)C(CCC(N)=O)C2(C)CC(N)=O.NCC[S][Co+2]` (centres unmarked) [CyaCbl], the “Time to completion of dethiolation reaction” value was “less than 10 seconds”.

With `CC([S][Co+2])C(=O)NCC(=O)O.CC1=C2N=C(C=C3N=C(C(C)=C4[N-]C(C(CC(N)=O)C4(C)CCC(=O)NCC(C)OP(=O)([O-])OC4C(CO)OC(n5cnc6cc(C)c(C)cc65)C4O)C4(C)N=C1C(CCC(N)=O)C4(C)CC(N)=O)C(CCC(N)=O)C3(C)C)C(CCC(N)=O)C2(C)CC(N)=O` (centres unmarked) [MPGCbl] the “Time to completion of dethiolation reaction” value was “less than 10 seconds”.
